# Laboratory results as given in PubChem BioAssay AID1347426 (Functional Genomics Laboratory (NCATS/FGL), 2020).
# About 1,400 (4.5%) of roughly 31,000 sequences were called active.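 The calls were made as follows: active = median seed-adjusted z-score above 1 or below -1; inactive = the rest.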 The list shows a part of the results.
# Assay: Novel Modifiers of Survival Motor Neuron (SMN) Protein: Gene Identification via Genome-wide siRNA Screen;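 also: luminescence tracks full-length SMN protein made from the SMN2 reporter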
# Settings: HEK293T SMN2-luciferase reporter, siRNA knockdown, 72 h; actives lie on both sides
# Method in brief: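 Steps: spot 1 pmol siRNA, add Lipofectamine RNAiMax in serum-free DMEM, seed HEK293T SMN2–luciferase reporter cells; incubate 72 h at 37 °C; add ONE-Glo; normalize luminescence to control siRNA, log10, MAD. Candidates: |MAD| > 1.0.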
row,Sequence,median seed-adjusted z-score
1,CAACCUUAGAGAGAGGAAATT against KCNE4,inactive: 0.0795
2,GGUUGUCAUUAACAACAGUTT against DLST,active: 1.16
3,AAAUGUUCACUGCAGGUAUTT against ECH1,inactive: 0.0348
4,GCUUCUAAUAUGUACCUGUTT against GSX1,inactive: 0.677
5,GGGUCAAGAGCAUAAGGAUTT against PROK2,inactive: -0.00826
6,CAACUGGAAAAUUACGUAATT against POLB,inactive: 0.376
7,GUGUCGCUGUGGUAUUAGATT against CNOT6L,inactive: -0.0259
8,CAUAUGAUCCUGAAGCAUATT against ZNF639,inactive: 0.182
9,CCAACGACCAAGUCACCAATT against IDH1,inactive: 0.421
10,GCUACUAAAAGAUCAAGUUTT against EXOSC9,inactive: -0.00796
11,GGUCAUGAUUGCUAUCCUUTT against TAAR9,active: -1.07
12,CAUUGGUUUUGAUGAGUAUTT against SNRPE,active: -2.77
13,GGAUUCAGGCAAUACUGAUTT against HMGCS2,inactive: -0.465
14,CAGGCUUUAUGAUCUAUAUTT against COQ5,inactive: -0.0292
15,GGAUCGUGUUUAUGGUGAATT against DPM1,inactive: -0.214
16,GGAAAGUACAUGUCUUCUATT against TNFRSF11A,inactive: -0.0833
17,GUACCGGCAUGUUAUGUUATT against CKS2,inactive: 0.0907
18,GAUCCUAUCGUAGACAUGATT against ZNF440,inactive: 0.208
19,GGCUAGUUACAAUUCUUGATT against XRCC2,inactive: 0
20,GAGAGAUACUCGCAGGCAATT against STX10,inactive: 0.772
21,CGUGGAUUCUUACGGAAGATT against CIT,inactive: -0.0585
22,GGAAUGCAUGGAAAACUUUTT against A4GNT,inactive: 0.213

row,Sequence,median seed-adjusted z-score
1,GCACAAUAUAGGCUAAUGATT against TEKT1,inactive: 0.222
2,CCAGCGUACUCCAAAGAUUTT against B2M,inactive: -0.367
3,CCUGCGCCUGUAUAACUAUTT against AURKC,inactive: -0.0275
4,GUUCUUGUCUAAGACAUGATT against ZNF799,active: -1.02
5,GGUUUAAUAAGCUAGCAGATT against CDH10,inactive: 0
6,GACUGUUAUUGGUGAGAGATT against CYP19A1,inactive: -0.321
7,GUGGAAUUAUUAAGGUGAATT against SPINK5L2,inactive: 0.482
8,CCCUUUUCGUGGUCUAUGATT against LCMT2,inactive: -0.0205
9,CCAUCGUCAUGGUUACCAATT against PTPRA,inactive: -0.438
10,GGACCAAGUUAGAACCGGATT against SETX,inactive: -0.709
11,CAUAGUCCUUGGACAUGUATT against TDRD9,inactive: 0.0754
12,GAUAGAAUGGUAAACAGCATT against PDHA2,inactive: 0.118
13,CGAUAGAACGAAUACCCUATT against ARID5B,inactive: 0
14,AAACGACAACUGUUAAAAATT against CCNA1,inactive: -0.203
15,GGACAUCGCCUUUCUCUAUTT against GJB5,inactive: 0.338
16,GGAUCUUCACGGACAGCUATT against ADCYAP1,inactive: 0.229
17,CUCACAUAAUCAUAAUAGATT against ZNF41,inactive: 0.342
18,CUGUCCAUAGUGUCAUUAATT against GALNT1,inactive: -0.164
19,GGAAUAUCUGGAACCGUGATT against KLRF1,inactive: 0.00941
20,CGUUGUCACUGAGAUCACATT against AVIL,inactive: -0.127
21,CAUUCACUUUUACUGCUUUTT against PLOD1,inactive: 0.481
22,GGCGGAUUUUUCAAACCCATT against LRRC52,inactive: 0.118

row,Sequence,median seed-adjusted z-score
1,CCAUCUUCACUGACGAGCATT against GSC,inactive: 0.17
2,GAGCUGAAAGAGUACGCAATT against AP1B1,inactive: -0.161
3,GGCCUACAGAUGACAUACATT against THADA,inactive: 0.00995
4,GAAAGGAUAUGGAUAUAAATT against PPIC,inactive: 0.0824
5,CAACCAUCGAGCAAAUGAATT against MAPK1,inactive: 0
6,GAGUUAUUCCGGGUACAUATT against LEF1,inactive: 0.808
7,CCUGAUCUCAAUACCUAUATT against CPN1,inactive: 0.17
8,GCGUAGCUGUUAACAAGCUTT against MAP3K11,inactive: 0.773
9,GCAGUUUGCGUUUUGAAAGTT against NSUN5C,inactive: -0.153
10,CGAGUUAGCAAGUUCAGCATT against CTRL,inactive: 0.0758
11,GGAUCCUAAACUAUCCCAATT against HARS,inactive: -0.722
12,CGGCGGAGUUUAUAGAUAATT against BCKDHA,inactive: -0.299
13,AGAUAACAUGAGUAUUGUATT against PPM1B,inactive: 0
14,AUGUAAAAUUGGUAACUAATT against ADH1B,inactive: 0.325
15,GGACAGGUGGAAUAACACUTT against GLS,inactive: 0
16,GAAUGCCUUGAGAAGAGUATT against RFC5,inactive: -0.644
17,GGUUCCCUGUGUUUUGAUUTT against FASTK,inactive: 0.306
18,GAUCCUACGCUAUGGAGUATT against ERG,inactive: 0.629
19,CCAUGACCUCGUUAGAGUATT against MRAS,inactive: 0.032
20,GCAUUGGUAAAAUUGCUAATT against AVIL,inactive: -0.127
21,GCAAGCCCGUUAAAUAAUUTT against FXYD3,inactive: 0.254
22,GCAUGAGCAUUUCAAGUAUTT against ENOSF1,inactive: 0.496

row,Sequence,median seed-adjusted z-score
1,GGGUCCGACUAAUAAGACATT against MTR,inactive: -0.0696
2,UCAGCAAUCUGACUCUGAATT against LY9,inactive: 0.228
3,UGAUAUCGGCUACGUCAAATT against NAGK,inactive: 0.446
4,ACAAAUAAGAAGAUCAUCATT against AHSA2,inactive: -0.881
5,GCUGUGUGAUGUAGACCAATT against ZNF580,inactive: 0.437
6,GCUCAAUGCAGGUAUUCAATT against KLF8,inactive: 0.0976
7,CGCCUGAUAUUGAAGUAAATT against ARX,inactive: 0.756
8,GCAUCCUACCCGUUCCAUATT against MSX2,inactive: -0.406
9,CCAAUACUAACAUCUUCAATT against MCART1,inactive: -0.605
10,UGCGUUUUCUGAUAACUCATT against PTP4A2,active: -1.45
11,GGACCUGAACUACUGCACATT against DLL1,inactive: 0
12,AGCUUGAAAAGUAAUGGAATT against SPINK7,inactive: -0.409
13,GUACAGCUCUUAUCGUUCATT against PPRC1,inactive: 0
14,CGACAUAACUUACGACAAATT against KIF23,inactive: -0.449
15,GGUGCAGAGGUCUACCAUATT against ENO2,inactive: 0.418
16,GGCUGCCCAUGGUACUCAATT against IMP5,inactive: 0.559
17,GAGACGAGGGUGAUCGGAATT against RASL10B,inactive: -0.377
18,CAUUCGCUCUCAUACUGGATT against CTCF,inactive: -0.0821
19,ACAUCAUCCACUCACUAAATT against FADS1,inactive: -0.905
20,GGAGAAUGGAUAAGGCAAATT against BCL2A1,inactive: 0.0557
21,CCCUUACUCUCCAAAAAUUTT against USF2,inactive: 0.352
22,GAUGGUGUAUGUACAAAGATT against ZNF543,inactive: 0

row,Sequence,median seed-adjusted z-score
1,CAAUGUAUCCUCACCCUUATT against RAB30,inactive: 0.395
2,CAUCGGUAAUUAUCAUCAUTT against UBR3,inactive: -0.894
3,GAGACUCUUUGAAAGUAAATT against ZNF433,inactive: 0
4,GAGCAUGUAUGAAAACCGATT against MAGI1,inactive: 0
5,GGAGCUGGACAGCAGGUUATT against GPR84,inactive: 0.285
6,GCCUGUUCCUGCUUCGAUATT against TRIM33,inactive: 0.316
7,ACAAAAAGGGCAUACAUUATT against S100A7A,inactive: 0.212
8,UGACCUCUAUGAGCAGUUUTT against ACTRT1,inactive: 0
9,GACCCAACAUAGAACUCCATT against KLRD1,inactive: 0.876
10,GGAGUUGAUUUUAUGAUUATT against RAB30,inactive: 0.395
11,GGAAAUAAGACUCAAGUUATT against GTF2A1,inactive: -0.0209
12,GGCUAUAGGUCUAGUGCUATT against RIMS1,inactive: 0
13,GAAAGAAUGCCGAAGAGUUTT against UBE2L6,inactive: -0.455
14,UCAUGACUACUUUCCCGAATT against NSFL1C,inactive: -0.0899
15,CUCUUCACGUCUGACCUGATT against HTR6,inactive: -0.463
16,GAACGUGGGCGACAAGAAATT against COMT,inactive: -0.0808
17,GCUCGGAGAAGAGAACAAATT against CHERP,inactive: 0.155
18,CUCCACAUGUAAUCCGUUATT against TAAR2,inactive: 0.137
19,UCAAUGCCUCCUUAAUUUUTT against ZNF321,inactive: -0.642
20,GAGACACGCUUCACAUACATT against FKBP11,inactive: -0.085

# An excerpt of these results, as tab-separated lines.
row	Sequence	median seed-adjusted z-score
17	GGUUCCCUGUGUUUUGAUUTT against FASTK	inactive: 0.306
16	GGCUGCCCAUGGUACUCAATT against IMP5	inactive: 0.559
14	UCAUGACUACUUUCCCGAATT against NSFL1C	inactive: -0.0899
18	CUCCACAUGUAAUCCGUUATT against TAAR2	inactive: 0.137
